Measurements as given in paper PMC10753161.

Molecular target: T1, StSN2 (endogenous, potato tuber) (potato (endogenous in tuber budding eyes)) (UniProt Q93X17)
T1 sequence: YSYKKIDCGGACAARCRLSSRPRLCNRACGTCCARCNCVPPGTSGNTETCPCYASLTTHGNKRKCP
Assay: affinity purification with mass spectrometry; Co-IP/MS screen for proteins interacting with StSN2; sample and conditions not told

binding: binds
Substance: StBIN2 (endogenous, potato tuber) (enzyme)

No constants are given. Whether binding was seen depends on the method and setting. Binding seen in cells or lysates may run through a third protein. Here binding means that the protein was enriched with, or labelled near, the bait; the list need not be complete.
